Chains of the proteins cited; added tags and fusions are not shown. Lines headed by an entry give the natural chain unless they say otherwise; changes in a name come on top.
UniProt P18054: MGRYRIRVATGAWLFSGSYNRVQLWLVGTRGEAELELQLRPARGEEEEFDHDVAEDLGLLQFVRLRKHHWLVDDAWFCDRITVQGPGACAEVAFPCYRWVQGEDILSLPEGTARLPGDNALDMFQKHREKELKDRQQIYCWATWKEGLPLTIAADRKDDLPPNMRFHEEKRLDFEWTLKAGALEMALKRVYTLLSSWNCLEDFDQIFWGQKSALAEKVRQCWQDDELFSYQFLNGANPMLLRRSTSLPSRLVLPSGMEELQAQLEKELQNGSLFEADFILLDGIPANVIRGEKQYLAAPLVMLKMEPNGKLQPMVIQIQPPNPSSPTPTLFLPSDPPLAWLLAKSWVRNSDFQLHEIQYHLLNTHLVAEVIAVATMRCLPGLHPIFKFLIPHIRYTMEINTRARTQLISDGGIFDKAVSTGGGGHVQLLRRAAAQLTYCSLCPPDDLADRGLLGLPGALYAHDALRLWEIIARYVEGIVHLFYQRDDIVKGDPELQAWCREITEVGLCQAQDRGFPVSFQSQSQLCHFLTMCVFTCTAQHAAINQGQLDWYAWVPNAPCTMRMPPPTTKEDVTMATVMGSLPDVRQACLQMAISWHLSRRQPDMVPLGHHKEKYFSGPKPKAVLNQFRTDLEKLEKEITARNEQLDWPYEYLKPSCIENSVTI

Out of some 580,000 compounds screened, about 6,100 (1.1%) were called active. Inconclusive means that the source gave no clear call. Such entries were picked first, then a sample of the others. Calls come from the whole dose curve; as a rule, active = well fitted inhibition curve with a large enough effect; inconclusive = small, poorly fitted or top-dose-only effect, or another doubt; inactive = no such curve, though single readings can be large or run the other way. Where the call is inconclusive, the potency comes from a doubtful curve fit.
Each compound was assayed against Polyunsaturated fatty acid lipoxygenase ALOX12 (Homo sapiens) (UniProt P18054) (assay: Primary qHTS assay for inhibitors of human arachidonate 12S-lipoxygenase (ALOX12): Round 2). Conditions: purified 12hLO, xylenol orange hydroperoxide absorbance; series mostly up to 108 µM.
Summary of the method: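 Hydroperoxide product was detected by ferrous iron/xylenol orange as the 573 to 405 nm absorbance ratio. Arachidonic acid at 40 uM (final) was turned over for 30 min at room temperature by 150 nM human 12hLO, pH 7.0 Hepes buffer, after 15 min compound preincubation.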
With `COc1ccc(-n2nc(C(=O)NCC(=O)Nc3cc(OC)c(OC)c(OC)c3)c3ccccc3c2=O)cc1Cl` the Potency was “inactive”. With `O=C(CSc1nc2c(c(C(F)(F)F)n1)CCc1ccccc1-2)NCc1ccco1` the Potency was inconclusive: 28.2 µM [inhibitor, partial curve]. In the case of `CC1CCCCN1S(=O)(=O)c1ccc(NC(=O)CN2C(=O)c3ccccc3S2(=O)=O)cc1` (centres undefined), the Potency was “inactive”. In the case of `COc1cc(C(=O)Nc2nc3ccc(S(=O)(=O)N4CCOCC4)cc3s2)cc(OC)c1OC`, the Potency was inconclusive: 56.2 µM [inhibitor, partial curve, poor fit]. With `CCC(=O)c1ccc(OCC(O)CN(CCc2ccccc2)Cc2ccccc2)cc1` (centres undefined) the Potency was inconclusive: 11.2 µM [inhibitor, full curve]. `N#Cc1cccnc1N1CCN(C(=O)c2cccc3c2C(=O)c2ccc(Cl)cc2S3(=O)=O)CC1` was tested, and the Potency was inconclusive: 39.8 µM [inhibitor, full curve, poor fit]. For `CCOc1ccc(S(=O)(=O)[C@H]2CS(=O)(=O)C[C@@H]2N2CCOCC2)cc1`, the Potency was “inactive”. For `O=C(NCc1ccncc1)c1cc(C2CC2)nc2onc(C3CCNC3)c12` (centres undefined), the Potency was inconclusive: 4.47 µM [inhibitor, full curve]. For `Cc1cc(N(C)C)nc(N2CCN(C(=O)Nc3ccccc3)CC2)n1`, the Potency was “inactive”. `CN(CC(=O)Nc1ccc(Cl)c(C(F)(F)F)c1)C(=O)/C=C/c1cccs1` was tested, and the Potency was inconclusive: 112 µM [inhibitor, partial curve, poor fit]. In the case of `Cn1c(-c2cnn(-c3ccccc3)c2N)n[nH]c1=S`, the Potency was inconclusive: 112 µM [inhibitor, single point]. `CCCCOCCCNC(=O)CCC(=O)NCC(CC)CCCC` (centres undefined) was tested, and the Potency was “inactive”. `COc1ccc(C(CNC(=O)c2ccc3c(c2)C(=O)N(CCC(C)C)C3=O)N2CCOCC2)cc1` (centres undefined) was tested, and the Potency was inconclusive: 141 µM [inhibitor, partial curve, poor fit]. `CC1(C)Cc2ccccc2C(C(Cc2ccccc2)C(N)=O)=N1` (centres undefined) was tested, and the Potency was inconclusive: 28.2 µM [inhibitor, single point]. With `O=C(Nc1cccc(NC(=O)c2ccccc2Cl)c1)c1ccc([N+](=O)[O-])o1` the Potency was inconclusive: 112 µM [inhibitor, single point]. With `Cc1ccc2nc(CSc3nc(C)nc4ccccc34)cn2c1` the Potency was “inactive”. For `O=[N+]([O-])c1ccc(CN2CCN(c3ccccc3Cl)CC2)o1`, the Potency was inconclusive: 8.91 µM [inhibitor, full curve, poor fit]. `CCn1nccc1C(=O)NCCc1ncc(C)n1C1CC1` was tested, and the Potency was inconclusive: 15.8 µM [inhibitor, partial curve, poor fit]. `O=C(NCCCn1ccnc1)/C(=C\c1ccc(Br)cc1)NC(=O)c1ccccc1` was tested, and the Potency was “inactive”. With `COc1ccc(/C(O)=C2/C(=O)C(=O)N(c3nc(C)c(C)s3)C2c2ccco2)cc1` (centres undefined) the Potency was inconclusive: 31.6 µM [inhibitor, partial curve, poor fit]. `COc1ccc(CNc2ccnc(-c3c(C)noc3C)n2)c(OC)c1` was tested, and the Potency was inconclusive: 44.7 µM [inhibitor, partial curve, poor fit]. With `Cc1ccc2sc(N(CCCN(C)C)C(=O)c3ccc(S(=O)(=O)N4CCc5ccccc5C4)cc3)nc2c1C` the Potency was inconclusive: 70.8 µM [inhibitor, single point]. With `CC1=C(OC(=O)CCC(=O)OC2=C(C)C(=O)OC(c3ccccc3)C2(C)C)C(C)(C)C(c2ccccc2)OC1=O` (centres undefined) the Potency was inconclusive: 31.6 µM [inhibitor, partial curve]. In the case of `COc1ccc(N2CCN(Cc3cc(=O)oc4cc(-c5ccccc5)c(O)cc34)CC2)cc1`, the Potency was “inactive”. In the case of `COc1ccc(Nc2oc(COc3cccc(C)c3)nc2C#N)cc1`, the Potency was “inactive”. For `CCOc1cc(C(=O)N2CC(=O)Nc3ccc(F)cc3C2c2ccccc2)cc(OCC)c1OCC` (centres undefined), the Potency was inconclusive: 112 µM [inhibitor, partial curve, poor fit]. For `O=C1CC(N2CCSCC2)C(=O)N1c1ccc(Br)cc1` (centres undefined), the Potency was inconclusive: 100 µM [inhibitor, partial curve, poor fit]. For `COc1ccc(N(CC(=O)N2CCC(Cc3ccccc3)CC2)S(C)(=O)=O)cc1`, the Potency was “inactive”. With `COc1ccc(N2CCN(CCCNC(=O)c3sc4ncccc4c3-n3cccc3)CC2)cc1` the Potency was “inactive”. In the case of `CC(C)OCCCNC(=O)Cn1c(-c2cccs2)cc2cc(F)ccc21`, the Potency was “inactive”. With `Cc1ccc(N/N=C/c2cccnc2)cc1` the Potency was active: 39.8 µM. For `Cc1noc(C)c1C(=O)OCC(=O)NCCc1ccc(S(N)(=O)=O)cc1`, the Potency was inconclusive: 79.4 µM [inhibitor, partial curve, poor fit]. For `CCNC(=O)CC1C(=O)N(c2cccc(OC)c2)C(=O)N1CCOC` (centres undefined), the Potency was inconclusive: 100 µM [inhibitor, partial curve, poor fit]. With `Cc1ccnc(NC(=O)CSc2ccc3c(c2)OCCO3)c1` the Potency was “inactive”. For `O=S(=O)(N/N=C/c1ccc(N2CCOCC2)cc1)c1ccccc1`, the Potency was “inactive”. With `CC(C)n1c(NCc2ccc(N(C)C)cc2)nc2ccccc21` the Potency was inconclusive: 158 µM [inhibitor, partial curve, poor fit]. With `CCc1nc(-c2c3n(c(=O)n(CC(=O)Nc4ccc(Cl)cc4F)c2=O)CCCC3)no1` the Potency was “inactive”. For `CCOC(=O)CN1C(=O)S/C(=C/c2cccc([N+](=O)[O-])c2O)C1=O`, the Potency was inconclusive: 89.1 µM [inhibitor, partial curve, poor fit]. `CN(C(=O)COC(=O)c1cncc(Br)c1)C1CCS(=O)(=O)C1` (centres undefined) was tested, and the Potency was inconclusive: 126 µM [inhibitor, single point]. In the case of `CCN(C(=O)c1nn(C)c2c1CSc1ccccc1-2)c1cccc(C)c1`, the Potency was inconclusive: 50.1 µM [inhibitor, partial curve, poor fit]. `CC1CCc2c(sc3ncnc(SCC(=O)c4ccccc4)c23)C1` (centres undefined) was tested, and the Potency was “inactive”. With `Cc1ccccc1NC(=O)c1ccc2c(Cl)c3c(nc2c1)CCCC3` the Potency was inconclusive: 4.47 µM [inhibitor, single point]. In the case of `COc1ccccc1NC(=O)C(=O)NCC(c1ccco1)N1CCc2ccccc21` (centres undefined), the Potency was inconclusive: 39.8 µM [inhibitor, partial curve, poor fit]. With `CC(=O)Nc1ccc(NC(=O)CCCN(c2ccc(Cl)cc2)S(C)(=O)=O)cc1` the Potency was inconclusive: 39.8 µM [inhibitor, single point]. For `O=C(NCc1ccc(Cl)cc1)c1cc2c(s1)CS(=O)(=O)C2`, the Potency was inconclusive: 35.5 µM [inhibitor, partial curve, poor fit]. `COc1ccc(S(=O)(=O)NCC(c2ccco2)S(=O)(=O)c2cccs2)cc1OC` (centres undefined) was tested, and the Potency was “inactive”. For `NC(=O)c1ccc(Cc2ncc(C(F)(F)F)cc2Cl)s1`, the Potency was inconclusive: 25.1 µM [inhibitor, single point]. In the case of `CN(C)c1ccc(NC(=O)CCC(=O)c2cccs2)cc1`, the Potency was inconclusive: 35.5 µM [inhibitor, partial curve]. With `CN(CC(=O)N(Cc1ccc(C2CCCCC2)cc1)c1ccc(C(=O)O)c(O)c1)S(=O)(=O)c1c(F)c(F)c(F)c(F)c1F` the Potency was inconclusive: 27.3 µM [inhibitor, partial curve, poor fit]. With `COc1ccccc1Nc1nc(N)nc(CSc2ncccn2)n1` the Potency was inconclusive: 0.355 µM [inhibitor, full curve, poor fit]. In the case of `CC1CCCN(C(=O)Cn2nnc(-c3ccccc3F)n2)C1` (centres undefined), the Potency was inconclusive: 0.562 µM [inhibitor, full curve, poor fit]. In the case of `CCN(CC)C(=O)C1=C(C)N(Cc2ccc(OC)cc2)C(=O)C(CC(=O)NCc2cccc3ccccc23)C1` (centres undefined), the Potency was “inactive”. In the case of `C=CCNc1nc(C(=O)OCC(=O)N(C)CC(=O)Nc2ccc(C)cc2)cs1`, the Potency was inconclusive: 1.58 µM [inhibitor, full curve, poor fit]. In the case of `COC(=O)[C@@]1(Cc2ccccc2)[C@H]2C(=O)N(C)C(=O)[C@H]2[C@H]2CN=C(SCC3CC3)N21`, the Potency was inconclusive: 35.5 µM [inhibitor, partial curve, poor fit]. For `COc1ccc(/C=C2/SC(=S)N(CCCC(=O)Nc3ccccc3C(=O)O)C2=O)cc1`, the Potency was inconclusive: 50.1 µM [inhibitor, partial curve, poor fit]. With `COC(=O)C(C#N)c1nc2ccccc2nc1NCCCO` (centres undefined) the Potency was inconclusive: 50.1 µM [inhibitor, partial curve]. For `CCN(C(=O)COC(=O)c1ccc2[nH]c(C)c(C)c2c1)c1c(N)n(Cc2ccccc2)c(=O)[nH]c1=O`, the Potency was inconclusive: 7.08 µM [inhibitor, full curve, poor fit]. With `Cc1cccc(N=C2NN=C(c3c(C)[nH]c4ccccc34)CS2)c1` the Potency was inconclusive: 79.4 µM [inhibitor, partial curve, poor fit]. In the case of `Cn1c(SCc2cc(=O)n3[nH]cc(C#N)c3n2)nnc1-c1ccc(C(C)(C)C)cc1`, the Potency was inconclusive: 79.4 µM [inhibitor, partial curve, poor fit]. `Cc1c(CC(=O)NCCCCCC(=O)O)c(=O)oc2c(C)c3oc4c(c3cc12)CCCC4` was tested, and the Potency was inconclusive: 1.58 µM [inhibitor, partial curve, poor fit]. For `Cc1ccc(S(=O)(=O)N2CCN(c3cccc(C)c3)CC2)cc1`, the Potency was inconclusive: 112 µM [inhibitor, single point]. In the case of `CN(C)S(=O)(=O)c1ccc(Cl)c(NC(=O)COC(=O)c2ccc3c(c2)NC(=O)CS3)c1`, the Potency was “inactive”. In the case of `c1ccc(-c2nnc3ccc(NC4CCCCC4)nn23)nc1`, the Potency was “inactive”. With `O=C(Nc1ccc(F)c(Cl)c1)c1cc(C2CCCCN2C(=O)c2ccc(Cl)cc2)on1` (centres undefined) the Potency was inconclusive: 56.2 µM [inhibitor, partial curve, poor fit].

— PubChem BioAssay AID1671190 (National Center for Advancing Translational Sciences (NCATS), 2021)
Potency is the fitted concentration of half-maximal effect.
